Where a name gives a salt, the structure may show the parent alone. This is one part of the list. This data set is noisy: repeats of one test often differ as much as different tests do.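 Human kidney-derived cells stably carry a construct in which eight TEAD-binding elements drive luciferase, measured by luminescence in a drug-repurposing library screen. A hit is any compound whose signal exceeds the plate mean by more than five robust Z scores.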
Test system: HEK293A TEAD-LUC reporter
Assay: TEAD-luciferase reporter activity (YAP activation), robust Z score vs plate; higher = stronger YAP/TEAD activation
Conditions: 24 h

| SMILES | TEAD-luciferase reporter activity (compound concentration: 200 nM) | TEAD-luciferase reporter activity (compound concentration: 2 uM) | TEAD-luciferase reporter activity (compound concentration: 10 uM) |
| --- | --- | --- | --- |
| COc1ccc(CNCC(O)COc2ccc3[nH]c(=O)ccc3c2)cc1OC (configuration not stated) | inactive: -1.47 | inactive: 0.0728 | inactive: 3.33 |
| CCCOc1ccc2c(c1)CC[C@@H]1[C@@H]2CC[C@]2(C)[C@@H](OC)CC[C@@H]12 [promestriene] | inactive: -0.251 | inactive: -0.415 | inactive: -1.02 |
| CCCCNC(=O)Nc1c(C)cccc1OCCCn1cnc(-c2ccccc2)c1CC | inactive: 1.94 | inactive: 0.24 | active: 5.06 |
| CC[C@H](C)[C@H](NC(=O)[C@H](Cc1ccc(O)cc1)NC(=O)[C@@H](NC(=O)[C@H](CCCNC(=N)N)NC(=O)[C@@H](N)CC(=O)O)C(C)C)C(=O)N[C@@H](Cc1c[nH]cn1)C(=O)N1CCC[C@H]1C(=O)O [Angiotensin (1-7)] | inactive: -0.762 |  | inactive: -0.169 |
| COc1cccc(OC)c1-c1ccc(C[C@H](NC(=O)c2c(Cl)cccc2Cl)C(=O)O)cc1 | inactive: -0.199 | inactive: -1.05 | inactive: -0.117 |
| Cn1c(-c2ccccc2C(F)(F)F)nnc1C12CCC(c3noc(C4CC(F)(F)C4)n3)(CC1)CC2 | inactive: -0.448 | inactive: 1.47 | inactive: 1.08 |
| CC1(C)CC[C@]2(NC(=O)C(C)(F)F)CC[C@]3(C)[C@H](C(=O)C=C4[C@@]5(C)C=C(C#N)C(=O)C(C)(C)[C@@H]5CC[C@]43C)[C@@H]2C1 | active: 6.07 | inactive: -0.518 | inactive: 1.49 |
| CCCC(=O)N1Cc2ccccc2CC2(CCCN2CCC)C1 (configuration not stated) | inactive: -0.377 |  | inactive: 1.38 |
| CC(C)Cn1cnc2c(N)nc3cccnc3c21 [Epetirimod esilate] | inactive: -0.663 | inactive: -0.447 | inactive: 0.573 |
| COC(=O)C(C)Oc1ccc(Cl)c(Cl)c1 (configuration not stated) | inactive: 2.2 | inactive: 0.548 | inactive: -1.47 |
| CC(C)(C)C(=O)N1CCC(n2c(=O)[nH]c3ccccc32)CC1 | inactive: -0.215 |  | inactive: 3.63 |
| CCNC(=O)c1ccc(Oc2cc(NC(=O)N3CCC(O)(CC(CC)CC)CC3)cc(Oc3ccc(F)cc3)c2)cc1 | inactive: 0.169 | inactive: -1.2 | inactive: 0.596 |
| O=C1c2ccc(O)c(Br)c2OCC1c1ccc(O)cc1 (configuration not stated) | inactive: -0.249 | inactive: -0.126 | inactive: -0.821 |
| FC(F)(F)c1cccnc1-c1ccc(-c2nc3ccc(Br)cc3[nH]2)nc1 | inactive: -1.75 | inactive: 0.802 | inactive: -0.48 |
| CCOc1nc2cccc(C(=O)OC(C)OC(=O)OC3CCCCC3)c2n1Cc1ccc(-c2ccccc2-c2nnn[nH]2)cc1 (configuration not stated) [candesartan cilexetil, GlaxoSmithKline] | inactive: -0.701 | inactive: -0.388 | inactive: 1.12 |
| CONC(=O)Nc1ccc(-c2sc3c(c2CN(C)C)c(=O)n(-c2ccc(OC)nn2)c(=O)n3Cc2c(F)cccc2F)cc1 [Relugolix] | inactive: 0.309 | inactive: -0.876 | inactive: 2.48 |
| Cc1nc(C)c(Cl)c(NS(=O)(=O)c2ccc(N)cc2)n1 | inactive: -0.879 | inactive: 0.361 | inactive: -0.862 |
| CCn1c(=O)c(-c2cc[nH]n2)cc2c(C)nc(N)nc21 [Voxtalisib hydrochloride] | inactive: -0.0274 | inactive: -0.835 | inactive: -1.86 |
| OC[C@H]1O[C@@H](Oc2ccc(O)cc2)C(O)[C@@H](O)C1O (some centres not stated) [Arbutin (Hydroqui   -glucose_:_ Arbutoside_:_ Ericolin)] |  | inactive: -1.29 |  |
| OC[C@H]1O[C@@H](Oc2ccc(O)cc2)C(O)[C@@H](O)C1O (some centres not stated) [Arbutin (Hydroqui  -glucose] |  |  | inactive: 1.7 |
| OC[C@H]1O[C@@H](Oc2ccc(O)cc2)C(O)[C@@H](O)C1O (some centres not stated) [Arbutin (Hydroqui-glucose] | inactive: 0.586 |  |  |
| CCC(=O)O[C@@H]1CC(=O)O[C@H](C)C/C=C/C=C/[C@H](OC(C)=O)[C@H](C)C[C@H](CC=O)[C@H](O[C@@H]2O[C@H](C)[C@@H](O[C@H]3C[C@@](C)(OC(C)=O)[C@@H](OC(=O)CC)[C@H](C)O3)[C@H](N(C)C)[C@H]2O)[C@H]1OC [Midecamycin acetate] | inactive: -1.07 | inactive: -0.761 | inactive: -0.0122 |
| Cc1c(CN2CCN(c3cccc(C(F)(F)F)c3)CC2)cc(-c2ccccc2)n1NC(=O)c1ccncc1 | inactive: 0.781 | inactive: 0.607 | inactive: -1.61 |
| CC(C)(C)c1ccc(OCC(O)COc2ccc(C(=O)O)cc2)cc1 (configuration not stated) [terbufibrol] | inactive: -0.993 | inactive: -1.27 | inactive: -0.52 |
| CCN(CC)CCC(=O)N1c2ccccc2Sc2ccc(C(F)(F)F)cc21 | inactive: -0.904 | inactive: 1.07 | inactive: -0.209 |
| OC[C@H]1O[C@@H](OC[C@H]2O[C@@H](O[C@@H]3[C@@H](O)[C@H](O)O[C@H](CO)[C@H]3O)[C@H](O)[C@@H](O[C@@H]3O[C@H](CO)[C@@H](O)[C@H](O)[C@H]3O)[C@@H]2O)[C@H](O)[C@@H](O)[C@@H]1O [Schizophyllan] | inactive: 0.901 | inactive: -0.353 | inactive: 1.3 |

3 entries from above in another layout.
SMILES	TEAD-luciferase reporter activity (compound concentration: 200 nM)	TEAD-luciferase reporter activity (compound concentration: 2 uM)	TEAD-luciferase reporter activity (compound concentration: 10 uM)
OC[C@H]1O[C@@H](Oc2ccc(O)cc2)C(O)[C@@H](O)C1O (some centres not stated) [Arbutin (Hydroqui   -glucose_:_ Arbutoside_:_ Ericolin)]		inactive: -1.29	
OC[C@H]1O[C@@H](Oc2ccc(O)cc2)C(O)[C@@H](O)C1O (some centres not stated) [Arbutin (Hydroqui  -glucose]			inactive: 1.7
OC[C@H]1O[C@@H](Oc2ccc(O)cc2)C(O)[C@@H](O)C1O (some centres not stated) [Arbutin (Hydroqui-glucose]	inactive: 0.586		

(continued)

| SMILES | TEAD-luciferase reporter activity (compound concentration: 200 nM) | TEAD-luciferase reporter activity (compound concentration: 2 uM) | TEAD-luciferase reporter activity (compound concentration: 10 uM) |
| --- | --- | --- | --- |
| CC(C)(C)COc1ccc(-n2cc(C(=O)O)cn2)cc1C#N [Piraxostat] | active: 5.42 | inactive: -1.68 | inactive: 0.855 |
| O=C(O)C[C@H](NC(=O)N[C@@H](CSCc1ccccc1)CSc1ccccc1)c1ccc2c(c1)OCO2 | inactive: -1.91 | inactive: -1.46 | inactive: -1.53 |
| O=C(c1ccc2nccnc2c1)N1CCCCC1 | inactive: 0.556 | inactive: -0.589 | inactive: 2.19 |
| O=C1NC(=O)[C@@H](c2cn3c4c(cccc24)CCC3)[C@@H]1c1c[nH]c2ccccc12 [tivantinib] |  | inactive: 0.949 |  |
| O=C1NC(=O)[C@@H](c2cn3c4c(cccc24)CCC3)[C@@H]1c1c[nH]c2ccccc12 [Tivantinib (ARQ 197)] | inactive: -0.71 |  | inactive: -0.0378 |
| O=C(O)/C=C/C(=O)O [Fumaric Acid] |  | inactive: 0.0447 |  |
| O=C(O)/C=C/C(=O)O [fumaric acid] | inactive: 0.535 |  | inactive: -1.63 |
| COc1ccc(NC(=O)C2CCN(C(=O)Cn3c(=O)sc4ccc(Cl)cc43)CC2)cc1 | inactive: -1.37 | inactive: -0.314 | inactive: -0.286 |
| CC(C)=CCC[C@](C)(O)[C@@H]1CC=C(C)CC1 [Levomenol] | inactive: -0.496 | inactive: -0.909 | inactive: 1.54 |
| Cc1ccc(-n2nc(C(C)(C)C)cc2NC(=O)Nc2ccc(-c3ccc(CN4CCOCC4)nc3)c3ccccc23)cc1 | inactive: -0.557 | inactive: 0.135 | inactive: 2.08 |
| FC1(F)C(F)(F)C(F)(F)C2(F)C(F)(F)C(F)(F)C(F)(F)C(F)(F)C2(F)C1(F)F (configuration not stated) [Perflunafene] | inactive: -1.35 | inactive: -1.37 | inactive: 0.053 |
| O=P([O-])([O-])OC[C@H]1O[C@](O)(COP(=O)([O-])O)[C@@H](O)[C@@H]1O | inactive: -0.61 | inactive: -1.4 | inactive: 1 |
| CN1CCC(=C2c3ccccc3CCc3ccc(C(=O)O)cc32)CC1 | inactive: 2.03 | inactive: 0.722 | inactive: 0.464 |
| c1ccc(-c2cc(CCC3CCNCC3)c3ccccc3n2)cc1 [pipequaline] | inactive: -0.423 | inactive: 0.631 | inactive: -0.692 |
| Cc1cc(-c2nc(CN3CCNCC3)no2)cc2c1C(=O)N(Cc1ccc(OC(F)(F)F)cc1)C2 | inactive: -0.671 | inactive: -0.318 | inactive: -0.296 |
| Cc1ccc(/C(=C\CN2CCCC2)c2ccccn2)cc1 [Triprolidine hydrochloride] | inactive: -1.62 | inactive: -0.693 | inactive: -0.816 |
| O=C1[O][Pt]2(<-[NH2]C[C@H]3CCC[NH]->23)[O]C(=O)C12CCC2 | inactive: -1.33 |  | inactive: 0.72 |
| O=C(NNCNNC(=O)c1ccncc1)c1ccncc1 | inactive: 0.516 | inactive: -2.2 | inactive: -0.009 |
| COc1cc(C(=O)C(=O)N2CCCC[C@H]2C(=O)OC(CCCc2cccnc2)CCCc2cccnc2)cc(OC)c1OC | inactive: -2.67 | inactive: -1.33 | inactive: -0.119 |
| CCCCc1cc(OC)c2ccccc2c1OC(C)=O [Bunaprolast] | inactive: 3.42 | inactive: 0.483 | inactive: -0.444 |
| O=C1NC(=O)C(S(=O)(=O)c2ccc3ccccc3c2)S1 (configuration not stated) | inactive: -0.611 | inactive: -1.66 | inactive: -0.0949 |
| CCC(C)n1ncn(-c2ccc(N3CCN(c4ccc(OCC5COC(Cn6cncn6)(c6ccc(F)cc6F)O5)cc4)CC3)cc2)c1=O (configuration not stated) | inactive: -1.73 | inactive: -1.27 | inactive: -0.398 |
| CC(C)(C(=O)O)c1ccc(C(=O)CCCN2CCC(OC(c3ccccc3)c3ccccc3)CC2)cc1 [Carebastine] | inactive: -0.948 | inactive: 0.645 | inactive: 0.254 |
| C[C@H]1Oc2cc(cnc2N)-c2c(nn(C)c2C#N)CN(C)C(=O)c2ccc(F)cc21 | inactive: 0.451 | inactive: -1.8 | inactive: 2.09 |
| C[C@]12C=CC(=O)C=C1CC[C@@H]1[C@@H]2[C@@H](O)C[C@@]2(C)[C@H]1CC[C@]2(O)C(=O)COC(=O)c1ccc(CO[N+](=O)[O-])cc1 | inactive: -0.858 | inactive: -1.07 | inactive: -1.06 |
